Hit rate of the full screen: of about 580,000 compounds, about 6,100 (1.1%) were called active. The inconclusive results got no clear call from the source; some entries with a clear call stand among them for comparison. Calls come from the whole dose curve; as a rule, active = well fitted inhibition curve with a large enough effect; inconclusive = small, poorly fitted or top-dose-only effect, or another doubt; inactive = no such curve, though single readings can be large or run the other way. Where the call is inconclusive, the potency comes from a doubtful curve fit.
molecular target: Polyunsaturated fatty acid lipoxygenase ALOX12 (Homo sapiens) (UniProt P18054); assay: Primary qHTS assay for inhibitors of human arachidonate 12S-lipoxygenase (ALOX12): Round 2; conditions: purified 12hLO, xylenol orange hydroperoxide absorbance; activity change, negative = inhibition: at 108 µM (top of the series) unless noted
Outline: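 Purified human 12hLO (150 nM final) in 25 mM Hepes, 0.01% Triton X-100, pH 7.0 was preincubated 15 min at room temperature with compound. Then 40 uM arachidonic acid was added, 30 min. Hydroperoxide was read by Fe-XO absorbance ratio 573/405 nm.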
% is set by controls: 0 for no effect and ±100 for the full control effect; potency is the fitted concentration of half-maximal effect.

By UniProt entry, the sequences of proteins in these tests, tags left out. Where a name states a change or a piece, a line headed by the entry shows the natural chain unless it says otherwise.
UniProt P18054: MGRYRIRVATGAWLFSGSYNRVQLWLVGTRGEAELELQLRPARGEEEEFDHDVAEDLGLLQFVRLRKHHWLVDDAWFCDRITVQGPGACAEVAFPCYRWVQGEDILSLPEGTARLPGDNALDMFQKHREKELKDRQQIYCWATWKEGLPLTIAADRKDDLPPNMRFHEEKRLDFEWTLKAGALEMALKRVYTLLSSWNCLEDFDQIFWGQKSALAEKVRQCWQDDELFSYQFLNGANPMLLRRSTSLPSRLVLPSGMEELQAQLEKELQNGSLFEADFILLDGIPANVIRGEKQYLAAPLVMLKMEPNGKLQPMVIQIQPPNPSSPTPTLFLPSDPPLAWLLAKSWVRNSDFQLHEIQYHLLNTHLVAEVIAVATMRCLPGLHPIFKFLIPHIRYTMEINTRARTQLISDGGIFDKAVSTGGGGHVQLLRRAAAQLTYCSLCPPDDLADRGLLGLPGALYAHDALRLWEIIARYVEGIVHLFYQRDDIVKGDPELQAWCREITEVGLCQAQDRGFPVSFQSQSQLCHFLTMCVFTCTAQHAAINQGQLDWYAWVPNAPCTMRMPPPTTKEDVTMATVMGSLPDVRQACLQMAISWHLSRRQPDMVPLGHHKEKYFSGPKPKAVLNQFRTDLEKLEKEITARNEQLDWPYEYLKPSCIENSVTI

Row | SMILES | Potency | activity change, negative = inhibition
1 | Cc1ccc2nc(Nc3ccc(Br)cc3)nc(-c3ccccc3)c2c1 | inconclusive: 0.178 µM [inhibitor, full curve, poor fit] | –
2 | Cc1ccccc1OCCn1cc(C(=S)N2CCCC2)c2ccccc21 | inconclusive: 35.5 µM [inhibitor, partial curve, poor fit] | –
3 | CCOc1cc(C(=O)Nc2ccc(C(=O)NCCN(CC)CC)cc2)ccc1OCC(=O)N1CCOCC1 | – | inactive: -18.4%
4 | CCC(=O)N(Cc1cc2c(C)cc(C)cc2[nH]c1=O)C1CCCCC1 | inconclusive: 79.4 µM [inhibitor, single point] | –
5 | CC1(C(=O)NS(=O)(=O)Cc2cccc(Cl)c2)CCN1C(=O)Cc1cccs1 (configuration not stated) | inconclusive: 31.6 µM [inhibitor, partial curve, poor fit] | –
6 | CCCCCC(=O)Nc1cc(S(=O)(=O)N2CCOCC2)ccc1N1CCN(C)CC1 | inconclusive: 22.4 µM [inhibitor, partial curve, poor fit] | –
7 | O=[S+]1([O-])NCC2(CCN(Cc3cccnc3)CC2)Oc2ncccc21 | inconclusive: 79.4 µM [inhibitor, partial curve, poor fit] | –
8 | O=C(COc1c(Br)cc(Br)c2cccnc12)N1CCc2ccccc2C1 | inconclusive: 15.8 µM [inhibitor, full curve, poor fit] | –
9 | Cc1ccc(-n2c(=S)[nH]c3sc4c(c3c2=O)CCC4)cc1 | inconclusive: 79.4 µM [inhibitor, partial curve, poor fit] | –
10 | CC(C)(C)OC(=O)N(Cc1ccccc1)Cc1ccccc1OCc1ccc(NC(=O)C2CCC2)cc1 | inconclusive: 31.6 µM [inhibitor, partial curve, poor fit] | –
11 | CC1CCC(C(C)(C)S)C(=O)C1 (configuration not stated) | inconclusive: 50.1 µM [inhibitor, full curve, poor fit] | –
12 | Cc1[nH]c2ccccc2c1CC(=O)N1CCN(S(=O)(=O)c2ccccc2F)CC1 | – | inactive: 4.37%
13 | CC(C)(C)c1cc(C(=O)NCCCn2ccnc2)cc(C(C)(C)C)c1 | inconclusive: 39.8 µM [inhibitor, partial curve, poor fit] | –
14 | CCOC(=O)c1ccc(NC(=S)NC(=O)COc2ccccc2)cc1 | inconclusive: 17.8 µM [inhibitor, full curve, poor fit] | –
15 | Cc1ccc(S(=O)(=O)N2CCN(C3CCN(C)C3=O)CC2)cc1C (configuration not stated) | inconclusive: 15.8 µM [inhibitor, full curve] | –
16 | N#Cc1c(N)c(C#N)c(-c2ccc(O)cc2)c2c1CCCC2 | inconclusive: 112 µM [inhibitor, single point] | –
17 | CCN(CC)CCN(Cc1cc2cc(C)ccc2[nH]c1=O)C(=O)Nc1ccccc1OC | inconclusive: 3.98 µM [inhibitor, full curve, poor fit] | –
18 | Cc1ccc(C(=O)Nc2ncc3c(n2)CC(c2ccco2)CC3=O)cc1 (configuration not stated) | inconclusive: 35.5 µM [inhibitor, partial curve] | –
19 | C=CCn1c(SCC(=O)c2ccc(O)c(O)c2)nnc1-c1ccc(OC)cc1 | inconclusive: 10 µM [inhibitor, partial curve] | –
20 | Cc1cc(NC(=O)c2ccco2)ccc1NC(=O)Cc1cccs1 | inconclusive: 112 µM [inhibitor, single point] | –
21 | CCCCNC(=O)C1(C)CCCCN1Cc1ccccc1-c1ccccc1 (configuration not stated) | inconclusive: 89.1 µM [inhibitor, partial curve, poor fit] | –

Row | SMILES | Potency | activity change, negative = inhibition
22 | CC1CN(S(=O)(=O)c2cccc(C(=O)Nc3ccc4c(c3)CCC4)c2)CC(C)O1 (configuration not stated) | – | inactive: -23.5%
23 | COc1ccccc1CNC(=O)COc1ccc(S(=O)(=O)N2CCCC2)cc1 | inconclusive: 2.51 µM [inhibitor, full curve, poor fit] | –
24 | O=[N+]([O-])c1cc(-c2cnc3ccccc3n2)ccc1Oc1ccc(Cl)cc1 | – | inactive: -15.5%
25 | CCC(=O)Nc1ccc2oc(-c3ccc(OC)c(Cl)c3)nc2c1 | – | inactive: -21.8%
26 | COc1ccc(NC(=S)NCc2ccc(Cl)cc2)c(OC)c1 | inconclusive: 44.7 µM [inhibitor, partial curve, poor fit] | –
27 | CCOC(=O)CCn1cnc2onc(-c3ccccc3Cl)c2c1=O | – | inactive: -2.27%
28 | COCc1c(C(=O)N[C@@H]2CN(Cc3ccccc3)C[C@H]2CN(C)C)noc1C | – | inactive: 35.5%
29 | CCN(CC(=O)Nc1c(F)cccc1F)C(=O)Cc1ccc2c(c1)CCC2 | inconclusive: 44.7 µM [inhibitor, partial curve, poor fit] | –
30 | CC(Sc1nnc(NCc2ccccc2)s1)C(=O)Nc1ccc2c(c1)C(=O)c1ccccc1C2=O (configuration not stated) | inconclusive: 50.1 µM [inhibitor, partial curve, poor fit] | –
31 | CCCCN(C)C(=O)CSc1nc2ccsc2c(=O)n1-c1ccccc1F | inconclusive: 35.5 µM [inhibitor, partial curve, poor fit] | –
32 | O=CC1=C(c2ccccc2)Oc2ccccc2O1 | – | inactive: -13%
33 | CC(C)(C)c1ccc(C(=O)NC(=S)N2CCCC2)cc1 | – | inactive: 447%
34 | Fc1ccc(N=c2ssnc2Cl)c(F)c1 | active: 7.08 µM | –
35 | Cc1cccc(C(=O)Nc2sc(C)c(-c3ccccc3)c2C#N)c1 | inconclusive: 20 µM [inhibitor, partial curve, poor fit] | –
36 | COc1cc(NC(=O)CCc2c(C)nc3c4c(C)cc(C)nc4nn3c2C)cc(OC)c1 | inconclusive: 89.1 µM [inhibitor, single point] | –
37 | C=CCn1c(=N)c(C(=O)NCCCOC)cc2c(=O)n3ccccc3nc21 | inconclusive: 50.1 µM [inhibitor, partial curve, poor fit] | –
38 | CCOC(=O)C1(C)C=C(Nc2cccc(C)c2)C(=O)N1c1ccccc1 (configuration not stated) | – | inactive: -11.2%
39 | Cc1csc(SCc2cc(=O)oc3cc4c(cc23)CCC4)n1 | inconclusive: 44.7 µM [inhibitor, partial curve, poor fit] | –
40 | COc1ccccc1C1=Nc2cccc3cccc(c23)N1 | inconclusive: 79.4 µM [inhibitor, single point] | –
41 | COc1cc(-c2nnc(SCC(=O)Oc3ccc(C)cc3C)o2)cc(OC)c1OC | – | inactive: -15.8%
42 | Cc1ccc(C2CC2/C(=N/O)c2ccc(F)cc2)cc1 (configuration not stated) | inconclusive: 112 µM [inhibitor, single point] | –

In a second layout: entries from further up
Row,SMILES,Potency,"activity change, negative = inhibition"
35,Cc1cccc(C(=O)Nc2sc(C)c(-c3ccccc3)c2C#N)c1,"inconclusive: 20 µM [inhibitor, partial curve, poor fit]",–
36,COc1cc(NC(=O)CCc2c(C)nc3c4c(C)cc(C)nc4nn3c2C)cc(OC)c1,"inconclusive: 89.1 µM [inhibitor, single point]",–
